From article PMC10279913
No constants are given. Whether binding was seen depends on the method and setting. In cells and extracts the contact can be indirect. Here binding means that the protein was enriched with, or labelled near, the bait; the list need not be complete. For part of these data: Tags and fused reporters may be left off the sequences shown.

Sequences of proteins named here, by UniProt entry; tags and fusion partners are left off. A change or cut given only in a name is not applied to a line headed by its entry.
UniProt G5EET8: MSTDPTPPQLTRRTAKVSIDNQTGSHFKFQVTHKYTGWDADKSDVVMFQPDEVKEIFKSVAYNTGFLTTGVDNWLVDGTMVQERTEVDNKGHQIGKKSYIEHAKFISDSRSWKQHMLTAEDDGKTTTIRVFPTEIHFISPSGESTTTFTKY
UniProt Q17832: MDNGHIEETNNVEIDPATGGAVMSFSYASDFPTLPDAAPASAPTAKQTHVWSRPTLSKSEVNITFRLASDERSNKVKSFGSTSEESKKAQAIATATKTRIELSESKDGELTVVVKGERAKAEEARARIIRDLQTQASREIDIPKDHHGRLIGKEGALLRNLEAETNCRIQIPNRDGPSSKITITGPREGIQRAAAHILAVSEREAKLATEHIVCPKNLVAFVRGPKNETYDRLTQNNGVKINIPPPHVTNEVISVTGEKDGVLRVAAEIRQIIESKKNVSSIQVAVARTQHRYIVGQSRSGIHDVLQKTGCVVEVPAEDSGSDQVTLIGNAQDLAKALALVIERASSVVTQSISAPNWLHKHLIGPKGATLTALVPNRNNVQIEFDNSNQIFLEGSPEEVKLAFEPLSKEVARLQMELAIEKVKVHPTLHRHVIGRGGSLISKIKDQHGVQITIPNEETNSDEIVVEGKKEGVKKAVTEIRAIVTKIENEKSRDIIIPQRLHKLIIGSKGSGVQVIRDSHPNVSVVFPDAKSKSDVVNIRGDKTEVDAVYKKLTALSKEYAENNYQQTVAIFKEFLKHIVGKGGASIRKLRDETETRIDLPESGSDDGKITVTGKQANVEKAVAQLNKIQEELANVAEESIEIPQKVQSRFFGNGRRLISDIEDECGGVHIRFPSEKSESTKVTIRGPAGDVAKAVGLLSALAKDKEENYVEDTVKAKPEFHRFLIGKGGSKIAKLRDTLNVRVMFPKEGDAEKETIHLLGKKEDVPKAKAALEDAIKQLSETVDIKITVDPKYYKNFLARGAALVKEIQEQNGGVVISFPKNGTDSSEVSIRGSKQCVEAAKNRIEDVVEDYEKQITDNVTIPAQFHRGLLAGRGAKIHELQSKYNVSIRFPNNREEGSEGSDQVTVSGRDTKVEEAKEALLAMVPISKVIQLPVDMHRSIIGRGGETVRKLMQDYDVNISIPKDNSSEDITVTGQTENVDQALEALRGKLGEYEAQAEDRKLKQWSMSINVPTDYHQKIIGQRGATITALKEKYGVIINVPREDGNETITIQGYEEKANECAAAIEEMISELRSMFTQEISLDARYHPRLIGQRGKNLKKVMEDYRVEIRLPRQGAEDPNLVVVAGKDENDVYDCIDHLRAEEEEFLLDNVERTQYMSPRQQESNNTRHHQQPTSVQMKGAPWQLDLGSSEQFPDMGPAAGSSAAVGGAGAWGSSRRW
UniProt P91871: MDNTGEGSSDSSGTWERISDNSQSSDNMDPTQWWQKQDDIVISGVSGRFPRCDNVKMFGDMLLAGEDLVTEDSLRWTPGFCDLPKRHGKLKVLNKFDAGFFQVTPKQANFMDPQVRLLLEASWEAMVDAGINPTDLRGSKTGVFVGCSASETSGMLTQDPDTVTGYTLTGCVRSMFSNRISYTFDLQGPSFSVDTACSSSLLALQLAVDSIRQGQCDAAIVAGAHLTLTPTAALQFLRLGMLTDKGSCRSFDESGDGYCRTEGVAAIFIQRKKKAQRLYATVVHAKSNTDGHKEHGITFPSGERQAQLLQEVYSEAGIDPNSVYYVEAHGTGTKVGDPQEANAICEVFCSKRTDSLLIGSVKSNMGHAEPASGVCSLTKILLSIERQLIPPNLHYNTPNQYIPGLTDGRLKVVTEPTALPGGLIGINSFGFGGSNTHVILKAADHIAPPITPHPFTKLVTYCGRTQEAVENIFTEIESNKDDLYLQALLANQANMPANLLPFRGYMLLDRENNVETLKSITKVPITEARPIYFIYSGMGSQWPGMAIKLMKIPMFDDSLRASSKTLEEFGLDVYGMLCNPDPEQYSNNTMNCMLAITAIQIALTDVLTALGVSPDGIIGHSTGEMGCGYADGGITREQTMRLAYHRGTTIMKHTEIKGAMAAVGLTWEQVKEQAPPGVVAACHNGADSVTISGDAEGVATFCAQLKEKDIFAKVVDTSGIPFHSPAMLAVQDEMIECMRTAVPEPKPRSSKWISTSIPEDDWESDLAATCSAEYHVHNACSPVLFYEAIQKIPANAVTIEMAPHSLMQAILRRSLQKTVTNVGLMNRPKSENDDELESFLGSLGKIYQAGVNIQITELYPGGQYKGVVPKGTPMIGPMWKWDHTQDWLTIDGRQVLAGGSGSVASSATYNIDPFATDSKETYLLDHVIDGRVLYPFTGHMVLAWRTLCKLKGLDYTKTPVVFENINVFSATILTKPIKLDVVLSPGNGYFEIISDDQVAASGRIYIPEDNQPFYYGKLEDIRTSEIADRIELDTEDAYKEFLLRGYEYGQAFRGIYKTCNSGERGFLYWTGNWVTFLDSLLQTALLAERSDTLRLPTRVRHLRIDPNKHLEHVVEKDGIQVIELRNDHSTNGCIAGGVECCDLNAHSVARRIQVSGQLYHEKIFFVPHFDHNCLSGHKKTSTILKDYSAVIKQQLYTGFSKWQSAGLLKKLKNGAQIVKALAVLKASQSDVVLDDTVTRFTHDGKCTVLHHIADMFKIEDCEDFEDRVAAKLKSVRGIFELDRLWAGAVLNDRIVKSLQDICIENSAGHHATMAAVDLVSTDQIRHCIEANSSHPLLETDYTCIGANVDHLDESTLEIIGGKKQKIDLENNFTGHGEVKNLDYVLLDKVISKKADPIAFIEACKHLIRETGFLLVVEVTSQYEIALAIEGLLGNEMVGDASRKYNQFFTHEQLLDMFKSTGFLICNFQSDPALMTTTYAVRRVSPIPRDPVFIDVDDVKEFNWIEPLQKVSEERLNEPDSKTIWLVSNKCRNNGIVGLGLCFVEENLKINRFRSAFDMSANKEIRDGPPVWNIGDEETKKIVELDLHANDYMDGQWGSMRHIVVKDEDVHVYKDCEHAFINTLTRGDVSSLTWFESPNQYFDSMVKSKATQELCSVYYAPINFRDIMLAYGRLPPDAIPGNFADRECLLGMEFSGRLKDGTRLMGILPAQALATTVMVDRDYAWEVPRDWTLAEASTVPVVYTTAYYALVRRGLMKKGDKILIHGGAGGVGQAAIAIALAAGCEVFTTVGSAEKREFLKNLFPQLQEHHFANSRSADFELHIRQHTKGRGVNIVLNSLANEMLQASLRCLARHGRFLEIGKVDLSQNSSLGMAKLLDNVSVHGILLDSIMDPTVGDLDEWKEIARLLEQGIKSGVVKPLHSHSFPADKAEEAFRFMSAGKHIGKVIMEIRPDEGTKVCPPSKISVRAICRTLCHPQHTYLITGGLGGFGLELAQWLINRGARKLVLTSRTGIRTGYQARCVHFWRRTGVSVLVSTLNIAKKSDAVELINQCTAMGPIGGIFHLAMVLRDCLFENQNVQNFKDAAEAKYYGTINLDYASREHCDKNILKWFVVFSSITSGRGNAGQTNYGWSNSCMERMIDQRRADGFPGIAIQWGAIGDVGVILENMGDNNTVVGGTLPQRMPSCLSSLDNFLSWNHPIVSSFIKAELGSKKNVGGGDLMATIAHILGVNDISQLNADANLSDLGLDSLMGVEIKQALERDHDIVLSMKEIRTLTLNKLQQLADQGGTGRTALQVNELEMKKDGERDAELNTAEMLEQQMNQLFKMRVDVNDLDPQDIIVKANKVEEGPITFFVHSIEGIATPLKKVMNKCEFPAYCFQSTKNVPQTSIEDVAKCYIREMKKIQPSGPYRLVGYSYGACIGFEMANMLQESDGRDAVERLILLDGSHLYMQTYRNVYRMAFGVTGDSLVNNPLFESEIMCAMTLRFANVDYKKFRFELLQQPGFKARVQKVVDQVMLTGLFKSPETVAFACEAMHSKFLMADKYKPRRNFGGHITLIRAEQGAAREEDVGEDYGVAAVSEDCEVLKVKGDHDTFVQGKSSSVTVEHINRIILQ
UniProt Q21351: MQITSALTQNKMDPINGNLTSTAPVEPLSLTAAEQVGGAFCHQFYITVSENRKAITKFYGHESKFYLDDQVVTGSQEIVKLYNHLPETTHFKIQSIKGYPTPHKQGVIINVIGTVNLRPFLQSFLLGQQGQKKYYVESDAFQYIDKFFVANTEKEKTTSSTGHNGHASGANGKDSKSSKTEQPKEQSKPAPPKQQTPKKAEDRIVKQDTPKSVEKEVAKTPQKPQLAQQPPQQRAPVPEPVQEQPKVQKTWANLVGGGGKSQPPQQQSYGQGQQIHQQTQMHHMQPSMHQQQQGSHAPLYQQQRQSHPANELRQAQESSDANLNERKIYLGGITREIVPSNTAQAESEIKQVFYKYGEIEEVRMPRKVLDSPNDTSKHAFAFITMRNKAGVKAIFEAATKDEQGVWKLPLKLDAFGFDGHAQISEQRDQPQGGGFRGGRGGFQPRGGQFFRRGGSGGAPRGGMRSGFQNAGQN
UniProt Q21243: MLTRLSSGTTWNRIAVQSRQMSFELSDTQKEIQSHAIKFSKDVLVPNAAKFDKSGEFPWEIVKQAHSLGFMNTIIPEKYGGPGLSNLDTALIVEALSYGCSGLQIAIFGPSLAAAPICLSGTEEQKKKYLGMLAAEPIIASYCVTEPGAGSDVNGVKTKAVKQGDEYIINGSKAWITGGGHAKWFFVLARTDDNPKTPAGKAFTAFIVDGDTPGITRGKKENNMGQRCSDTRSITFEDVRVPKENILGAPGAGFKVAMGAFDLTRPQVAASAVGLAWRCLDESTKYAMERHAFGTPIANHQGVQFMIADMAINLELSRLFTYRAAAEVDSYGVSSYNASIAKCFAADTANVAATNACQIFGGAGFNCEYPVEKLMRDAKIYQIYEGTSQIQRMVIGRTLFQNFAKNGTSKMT
UniProt P52011: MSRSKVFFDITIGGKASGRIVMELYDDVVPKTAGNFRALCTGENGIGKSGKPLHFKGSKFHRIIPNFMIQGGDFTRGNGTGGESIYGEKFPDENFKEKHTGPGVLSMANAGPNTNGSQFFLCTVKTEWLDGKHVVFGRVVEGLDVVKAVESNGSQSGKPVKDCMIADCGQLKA
UniProt Q22352: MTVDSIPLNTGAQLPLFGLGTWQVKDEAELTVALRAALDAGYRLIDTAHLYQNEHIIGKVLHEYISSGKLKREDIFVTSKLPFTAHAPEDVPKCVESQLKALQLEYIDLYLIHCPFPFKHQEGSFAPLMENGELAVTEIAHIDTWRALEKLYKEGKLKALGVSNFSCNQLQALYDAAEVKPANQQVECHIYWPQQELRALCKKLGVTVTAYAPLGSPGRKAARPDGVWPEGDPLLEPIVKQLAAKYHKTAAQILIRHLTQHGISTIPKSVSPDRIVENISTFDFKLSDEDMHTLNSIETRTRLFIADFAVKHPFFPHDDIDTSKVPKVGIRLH
UniProt Q23315: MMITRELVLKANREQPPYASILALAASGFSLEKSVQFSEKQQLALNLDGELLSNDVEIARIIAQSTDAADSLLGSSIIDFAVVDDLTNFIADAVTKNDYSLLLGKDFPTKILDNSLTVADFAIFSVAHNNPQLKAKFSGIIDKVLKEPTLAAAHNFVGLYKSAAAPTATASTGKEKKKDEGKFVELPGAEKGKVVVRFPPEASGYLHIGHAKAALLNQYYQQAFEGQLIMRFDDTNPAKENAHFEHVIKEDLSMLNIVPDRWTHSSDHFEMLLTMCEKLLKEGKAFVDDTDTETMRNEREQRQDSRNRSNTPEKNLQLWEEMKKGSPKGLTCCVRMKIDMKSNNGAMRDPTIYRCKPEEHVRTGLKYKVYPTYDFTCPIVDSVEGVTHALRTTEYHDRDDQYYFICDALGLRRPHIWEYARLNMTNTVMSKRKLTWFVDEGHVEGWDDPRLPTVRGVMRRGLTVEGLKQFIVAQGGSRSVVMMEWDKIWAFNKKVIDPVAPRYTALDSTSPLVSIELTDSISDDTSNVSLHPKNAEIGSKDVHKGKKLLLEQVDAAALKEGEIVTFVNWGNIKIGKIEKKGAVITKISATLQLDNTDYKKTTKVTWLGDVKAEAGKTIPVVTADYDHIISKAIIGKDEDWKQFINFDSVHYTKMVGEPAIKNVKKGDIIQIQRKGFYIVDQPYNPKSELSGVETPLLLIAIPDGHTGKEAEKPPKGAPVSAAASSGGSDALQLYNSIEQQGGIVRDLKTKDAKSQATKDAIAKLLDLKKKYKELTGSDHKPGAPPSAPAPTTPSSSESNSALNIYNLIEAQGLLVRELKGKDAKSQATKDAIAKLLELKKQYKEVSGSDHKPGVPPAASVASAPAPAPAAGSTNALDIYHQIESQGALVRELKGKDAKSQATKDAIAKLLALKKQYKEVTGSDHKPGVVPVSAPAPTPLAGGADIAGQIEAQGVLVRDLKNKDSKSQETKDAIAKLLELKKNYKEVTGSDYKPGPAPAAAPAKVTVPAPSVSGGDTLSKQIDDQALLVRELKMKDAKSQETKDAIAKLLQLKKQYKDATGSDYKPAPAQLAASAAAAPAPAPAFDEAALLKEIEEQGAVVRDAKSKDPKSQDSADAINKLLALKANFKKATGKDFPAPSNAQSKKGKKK

T1: HA::AdipoR2 (human) (UniProt Q86V24)
T1 sequence: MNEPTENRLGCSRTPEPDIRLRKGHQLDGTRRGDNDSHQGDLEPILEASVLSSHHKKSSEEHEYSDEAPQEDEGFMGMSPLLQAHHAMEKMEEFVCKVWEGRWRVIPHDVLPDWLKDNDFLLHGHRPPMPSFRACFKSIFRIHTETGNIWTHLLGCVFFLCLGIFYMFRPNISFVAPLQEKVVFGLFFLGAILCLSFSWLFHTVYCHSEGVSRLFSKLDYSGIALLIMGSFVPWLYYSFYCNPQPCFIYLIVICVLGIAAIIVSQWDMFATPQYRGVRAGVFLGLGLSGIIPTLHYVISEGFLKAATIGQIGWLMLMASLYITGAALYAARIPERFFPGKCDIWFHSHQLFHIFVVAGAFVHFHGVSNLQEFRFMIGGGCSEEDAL

B1: Fructose-bisphosphate aldolase 1 (enzyme, UniProt P54216 1-366)
chain: MASYSQFLTKAQEDELRSIANAIVTPGKGILAADESTGSMDKRLNSIGLENTEENRRKYRQLLFTAGADLNKYISGVIMFHETFYQKTDDGKPFTALLQEQGIIPGIKVDKGVVPMAGTIGEGTTQGLDDLNARCAQYKKDGAQFAKWRCVHKISSTTPSVTALKEIASNLGSRYASICQQNGLVPIVEPEILPDGEHCLARGQKITETVLSYVYHALNEHHVFLEGTLLKPNMVTSGQSFTGEKPSNADIGLATVTALQRGVPSAVPGVVFLSGGQSEEDATLNLNAINQVSGKKPWALTFSYGRALQASCLAKWAGKDENIAAAQEVLLHRAQVNSLASVGKYTGDASADAAASQSLFVANHSY
B2: ATP-dependent RNA helicase cgh-1 (enzyme, UniProt Q95YF3 1-430)
chain: MSGAEQQQIVPANNGDENWKAGLNLPAKDRRFKTADVTDTKGVEFEDFCLGRDLLMGIFEKGWEKPSPIQEASIGVALTGQDILARAKNGTGKTGAYCIPVIEKIQPALKAIQAMVIVPTRELALQTSQICVELSKHIQLKVMVTTGGTDLRDDIMRLNGTVHLVIATPGRILDLMEKGVAKMEHCKTLVLDEADKLLSQDFQGILDRLINFLPKERQVMLYSATFPNTVTSFMQKHMHKPYEINLMEELTLLGVTQYYAFVQEKQKVHCLNTLFRKLQINQSIIFCNSTQRVELLAKKITEIGYSCYYIHSKMAQNHRNRVFHDFRQGNCRNLVCSDLLTRGIDIQAVNVVINFDFPRNAETYLHRIGRSGRFGHLGVAINLITYEDRHTLRRIEQELRTRIEPIPKTVDPKLYVADQQLVDAADETTA
B3: Probable coatomer subunit beta' (protein, UniProt Q20168 1-1000)
chain: MPLRLDVKRKLLARSDRVKCVDLHPVETWLLAALYNGNVHIWNYETQTLVKSFEVCDVPVRAAKFVPRKSWVVTGSDDMHIRVFNYNTLERVHQFEAHSDYLRSLVVHPTLPYVISSSDDMLVKMWDWDNKWAMKQSFEGHTHYVMQIAINPKDNNTFATASLDKTVKVWQFGSNVPNFTLEGHEKGVNCVDYYHGGEKPYIISGADDHLVKIWDYQNKTCVQTLDGHAQNVSSVCFHPELPLIITGSEDSTVRLWHANTYRLETTLNYGLERVWCIQAQKGANTIAIGYDEGSVTLKLGREEPAVSMDSSGKILWAKHSEIQQANLKTISTEESEAIQDGERLPLSVKDLGSSEIYPQTLAHSSNGRFVVACGDGEYIVYTAMALRNKDFGQGLEFVWAVDPNMFAVRESATNVKIKKNFKDHKSIRSDMVLEGISGGPLLALRSNNSLCFFDWESAVLVRRIEITSKSIYWSDNGEMVAICGDDSFYVLKYSAEAVANATEVTEDGIEDAFEVIGEQAEAVKTGFWIGDCFIFTTALNRINYYVGGEIVTIAHVDRPLYLLGYMAKESRVYAVDKDLNVISYKLLLSVLEYQTAVMRRDFDTADKVLTTIPKEQRTRVAHFLEKQGFKKQALAVSQDPDHKFDLSVALGDLKTAYDLALQSDSEEKWKALSNAATLKSELLLAGECLGRARDFGGLMLLATCAGSAPLLQKLADDSAAAESHNISFLSSLLLGDIDACLDKLISTGRLPEAAFLARTHAPSRVSSILELWKAKASGHSEKSSRKIGESLADPVKYENLFPGFTQSLKAESFVREISKIPVPASVRVPSAATRNIQEELDEAVASGAVSFTDDGQAVLKNAPRQTETQLKAPPPPSVARQPSPVRQPSPIREPSPIREPEPEEEEEQEEFDDDQQEVHVPANQESADAHGTSKTPDVVLETSRPDIVPPRGSAAPDLVSASSQQSAQDFQDDTQWSDEDFGDAENGDLNMDDLNLDEED
B4: Coatomer subunit epsilon (protein, UniProt O62246 1-292)
chain: MADKLFSIRNYFFLGSYQSCIGEALKFSSKNEEEKQEKDVYLYRSYIAQGQAFIPLKEIPAATKSADLAAVRRYAEFRNNPAAKKKILAEVQEEVASRNIKSEIAAVLAATILNEADLSQDAFRAVSRFEGLEARASKVFILIKMNKRKLAIGEVKKMNQIDEDATLSQLANALVTSFGASGKVKDALYIYSEMSDKYGRTTDLEMHQAVVSILTQDYAAAEELLESALERDNKDADVLINSIVSAQLNEKDDDVVERFISQLKHEHPNHPWVIDFNEKEAEFDRVASDSRA
B5: Serine/arginine-rich splicing factor 3 (protein, UniProt P84103 1-164)
chain: MHRDSCPLDCKVYVGNLGNNGNKTELERAFGYYGPLRSVWVARNPPGFAFVEFEDPRDAADAVRELDGRTLCGCRVRVELSNGEKRSRNRGPPPSWGRRPRDDYRRRSPPPRRRSPRRRSFSRSRSRSLSRDRRRERSLSRERNHKPSRSFSRSRSRSRSNERK
B6: Upregulated during skeletal muscle growth protein 5 (protein, UniProt Q96IX5 1-58)
chain: MAGPESDAQYQFTGIKKYFNSYTLTGRMNCVLATYGSIALIVLYFKLRSKKTPAVKAT
B7: Aspartate–tRNA ligase, cytoplasmic (enzyme, UniProt P14868 1-501)
chain: MPSASASRKSQEKPREIMDAAEDYAKERYGISSMIQSQEKPDRVLVRVRDLTIQKADEVVWVRARVHTSRAKGKQCFLVLRQQQFNVQALVAVGDHASKQMVKFAANINKESIVDVEGVVRKVNQKIGSCTQQDVELHVQKIYVISLAEPRLPLQLDDAVRPEAEGEEEGRATVNQDTRLDNRVIDLRTSTSQAVFRLQSGICHLFRETLINKGFVEIQTPKIISAASEGGANVFTVSYFKNNAYLAQSPQLYKQMCICADFEKVFSIGPVFRAEDSNTHRHLTEFVGLDIEMAFNYHYHEVMEEIADTMVQIFKGLQERFQTEIQTVNKQFPCEPFKFLEPTLRLEYCEALAMLREAGVEMGDEDDLSTPNEKLLGHLVKEKYDTDFYILDKYPLAVRPFYTMPDPRNPKQSNSYDMFMRGEEILSGAQRIHDPQLLTERALHHGIDLEKIKAYIDSFRFGAPPHAGGGIGLERVTMLFLGLHNVRQTSMFPRDPKRLTP
B8: Dolichyl-diphosphooligosaccharide–protein glycosyltransferase (protein, UniProt P39656 43-456)
chain: SGPRTLVLLDNLNVRETHSLFFRSLKDRGFELTFKTADDPSLSLIKYGEFLYDNLIIFSPSVEDFGGNINVETISAFIDGGGSVLVAASSDIGDPLRELGSECGIEFDEEKTAVIDHHNYDISDLGQHTLIVADTENLLKAPTIVGKSSLNPILFRGVGMVADPDNPLVLDILTGSSTSYSFFPDKPITQYPHAVGKNTLLIAGLQARNNARVIFSGSLDFFSDSFFNSAVQKAAPGSQRYSQTGNYELAVALSRWVFKEEGVLRVGPVSHHRVGETAPPNAYTVTDLVEYSIVIQQLSNGKWVPFDGDDIQLEFVRIDPFVRTFLKKKGGKYSVQFKLPDVYGVFQFKVDYNRLGYTHLYSSTQVSVRPLQHTQYERFIPSAYPYYASAFSMMLGLFIFSIVFLHMKEKEKSD

biological target: HA::PAQR-2 (C. elegans) (UniProt Q9N536); test: affinity purification with mass spectrometry; anti-HA immunoprecipitation (rabbit mAb C29F4 + protein A-agarose, 1 h, 4 °C) from lysates of whole worms carrying HA::PAQR-2; 25 mM Tris pH 7.5, 300 mM NaCl, 0.1% NP-40, no protease inhibitor; eluted with 0.2 M glycine pH 2.5; 2 IPs; control: worms without HA-tagged protein

binding, binds:
PUD-1.2 (from UniProt G5EET8)
VGLN-1 (from UniProt Q17832)
UNC-52 (from UniProt Q06561 23-3375)
ACS-4 (from UniProt Q20121) (enzyme)
RPL-36.A (from UniProt P48166 1-105)
FASN-1 (from UniProt P91871) (enzyme)
GTBP-1 (from UniProt Q21351 1-473)
ACDH-8 (from UniProt Q21243)
CEY-3 (from UniProt P91398)
PUD-3 (from UniProt Q5TKB2)
Peptidyl-prolyl cis-trans isomerase 3 (from UniProt P52011 1-173) (enzyme)
EXC-15 (from UniProt Q22352)
EARS-1 (from UniProt Q23315) (enzyme)
B1
B2
B3
B4

biological target: T1, HA::AdipoR2 (human); test: affinity purification with mass spectrometry; anti-HA immunoprecipitation (rabbit mAb C29F4 + protein A-agarose, 3 h) from lysates of HEK293 cells stably expressing HA-tagged AdipoR2; 25 mM Tris pH 7.5, 300 mM NaCl, 0.1% NP-40; eluted with 0.2 M glycine pH 2.5; 4 IPs; control: cells without HA-tagged protein

binding, binds:
B5
B6
B7
B8
